Results: paper PMC12036977
Results are given in words; binding and its absence hold for the method and conditions named. Binding seen in cells or lysates may run through a third protein. Some binding calls cover weakened binding; strength is not graded here. Where a sequence is shown, tags or fusion partners need not be part of it.

B1: Recombinant human MFRP-1D4 (protein, UniProt Q9BY79 1-579)
chain: MKDFSDVILCMEATESSKTEFCNPAFEPESGPPCPPPVFPEDASYSVPAPWHGRRPRGLRPDCRFSWLCVLLLSSLLLLLLGLLVAIILAQLQAAPPSGASHSPLPAGGLTTTTTTPTITTSQAAGTPKGQQESGVSPSPQSTCGGLLSGPRGFFSSPNYPDPYPPNTHCVWHIQVATDHAIQLKIEALSIESVASCLFDRLELSPEPEGPLLRVCGRVPPPTLNTNASHLLVVFVSDSSVEGFGFHAWYQAMAPGRGSCAHDEFRCDQLICLLPDSVCDGFANCADGSDETNCSAKFSGCGGNLTGLQGTFSTPSYLQQYPHQLLCTWHISVPAGHSIELQFHNFSLEAQDECKFDYVEVYETSSSGAFSLLGRFCGAEPPPHLVSSHHELAVLFRTDHGISSGGFSATYLAFNATENPCGPSELSCQAGGCKGVQWMCDMWRDCTDGSDDNCSGPLFPPPELACEPVQVEMCLGLSYNTTAFPNIWVGMITQEEVVEVLSGYKSLTSLPCYQHFRRLLCGLLVPRCTPLGSVLPPCRSVCQEAEHQCQSGLALLGTPWPFNCNRLPEAADLEACAQP
B2: Recombinant ADIPOR1-FLAG (receptor, UniProt Q96A54 1-375)
chain: MSSHKGSVVAQGNGAPASNREADTVELAELGPLLEEKGKRVIANPPKAEEEQTCPVPQEEEEEVRVLTLPLQAHHAMEKMEEFVYKVWEGRWRVIPYDVLPDWLKDNDYLLHGHRPPMPSFRACFKSIFRIHTETGNIWTHLLGFVLFLFLGILTMLRPNMYFMAPLQEKVVFGMFFLGAVLCLSFSWLFHTVYCHSEKVSRTFSKLDYSGIALLIMGSFVPWLYYSFYCSPQPRLIYLSIVCVLGISAIIVAQWDRFATPKHRQTRAGVFLGLGLSGVVPTMHFTIAEGFVKATTVGQMGWFFLMAVMYITGAGLYAARIPERFFPGKFDIWFQSHQIFHVLVVAAAFVHFYGVSNLQEFRYGLEGGCTDDTLL
B3: Recombinant KCNJ13-FLAG (protein, UniProt O60928 1-360)
chain: MDSSNCKVIAPLLSQRYRRMVTKDGHSTLQMDGAQRGLAYLRDAWGILMDMRWRWMMLVFSASFVVHWLVFAVLWYVLAEMNGDLELDHDAPPENHTICVKYITSFTAAFSFSLETQLTIGYGTMFPSGDCPSAIALLAIQMLLGLMLEAFITGAFVAKIARPKNRAFSIRFTDTAVVAHMDGKPNLIFQVANTRPSPLTSVRVSAVLYQERENGKLYQTSVDFHLDGISSDECPFFIFPLTYYHSITPSSPLATLLQHENPSHFELVVFLSAMQEGTGEICQRRTSYLPSEIMLHHCFASLLTRGSKGEYQIKMENFDKTVPEFPTPLVSKSPNRTDLDIHINGQSIDNFQISETGLTE

Key:
Experiment in all cases: co-IP; detergent-solubilized recombinant proteins with FLAG (ADIPOR1, KCNJ13) or 1D4 (MFRP) epitopes, produced in the mammalian system; anti-FLAG, anti-1D4 or normal IgG (ctrl) resins; immunoblotting
Recombinant ADIPOR1-FLAG = molecular target: T1, Recombinant ADIPOR1-FLAG (UniProt Q96A54)
T1 sequence: B2 chain

Recombinant KCNJ13-FLAG = molecular target: T2, Recombinant KCNJ13-FLAG (UniProt O60928)
T2 sequence: B3 chain

[1] = molecular target: T3, Recombinant human MFRP-1D4 (human) (UniProt Q9BY79)
T3 sequence: B1 chain

Binder	binding (Recombinant ADIPOR1-FLAG)	binding (Recombinant KCNJ13-FLAG)	binding [1]
B1	binds	binds	
B2			binds
B3			binds
